Series [1] in a line: APSD by NGI, Example 2 Trimbow pMDI vs soft mist inhaler. The format is physicochemical. Here is the method:
The in vitro aerodynamic assessment was carried using a next generation impactor, NGI (Copley Scientific Ltd), equipped with a mouthpiece adapter for the insertion of the inhaler, an induction port and an internal filter holder (IFH) to capture the smaller particles. The product was tested as per procedure detailed in the European pharmacopoeia chapter 2.9.18 (apparatus E) and US Pharmacopeia chapter <601> (apparatus 6) for Soft Mist Inhalers.
The NGI was cooled to 5° C. for at least 75 min. The cooling chamber was then opened and, after 30 minutes, the NGI was connected to a HCP5 vacuum pump (Copley Scientific Ltd). […]
After the required actuations, the particles deposited on the different surfaces of the impactor were extracted using a suitable diluent (methanol) and with the help of a Gentle Rocker (Copley Scientific Ltd). Active ingredients were then quantified by HPLC, with the same methods used for the Example 1.
Data analysis. The NGI results were plotted against the stage cut-off diameter as the mass recovered from the induction port to the filter. Fine particle fraction (FPF %), mass median aerodynamic diameter (MMAD), fine particle dose (FPD) were determined from the analysis of the NGI data.
(§1) Results are expressed as the mean value of two NGIs analysis.

Series [2] in a line: APSD by NGI, Example 4 budesonide/formoterol 70% vs 96% ethanol, soft mist inhaler. The note with it: Formulation 2 (96% EtOH). The series is classed as physicochemical. As for the experimental part:
An Isocratic (1.0 mL/min), HPLC-UV detection (Budesonide wavelength: 240 nm, Formoterol Fumarate wavelength: 214 nm) was employed with a Mobile Phase composed of 50/50 v/v ACN/0.1% Formic Acid with a C18 column (Hypersil BDS, 250×4.6 mm, 5 μm). External Formoterol Fumarate and Budesonide standards prepared in the method diluent (75/25 v/v MeOH/water) were used to quantify the amount of active ingredient present in the sample prepared in the same diluent using the response factor of Standard and Sample solutions. Typical System Suitability Criteria applies as per USP <621> requirements.
For the APSD evaluation Formulation 1 and 2 were filled into cartridges compatible with a soft mist inhaler (Respimat®). The in vitro aerodynamic particle size distribution of both formulations was evaluated using an impactor, the next generation impactor, NGI (Copley Scientific Ltd) equipped with a mouthpiece adapter for the insertion of the inhaler, an induction port and an internal filter holder (IFH) to capture the smaller particles. […]
After the required actuations, the particles deposited on the different surfaces of the impactor were extracted using a suitable diluent (75/25 v/v MeOH/water) and with the help of a Gentle Rocker (Copley Scientific Ltd). Active ingredients were then quantified by HPLC as described above. […]
as §1

We go through one compound from patent US20230270754A1, “COMBINATION THERAPY FOR INHALATION ADMINISTRATION” (Chemo Research, S.L., priority 2020, published 2023).

In the case of `COc1ccc(C[C@@H](C)NC[C@H](O)c2ccc(O)c(NC=O)c2)cc1.O.O.O=C(O)/C=C/C(=O)O` (racemic) [Formoterol Fumarate], the MMAD in series [1] (Soft Mist Inhaler (1 actuation), triple combination in 96% ethanol) is given as 1.2 μm; in series [1] (Trimbow pMDI (2 actuations)), 1.2 μm; in series [2], 1.1 μm.
